Data taken from patent US6486343B1, “Substituted phenyl keto enols as pesticides and herbicides” (Bayer Aktiengesellschaft, priority 1996, dated 2002).
Some results were stated once for a whole list of compounds, not compound by compound.

Tested on: peach aphid (Myzus persicae)
Assay: Myzus test
Assay type: in vivo
Conditions: active compound concentration 0.1%; after 6 days; infested cabbage leaves dipped

| SMILES | destruction in % |
| --- | --- |
| Cc1ccc(Cl)c(C)c1C1=C(O)C2(CCCCC2)OC1=O [I-2-a-1] | at least 80% |
| Cc1ccc(Cl)c(C)c1C1=C(O)C2(CCC(C)CC2)NC1=O (centres unmarked) [I-1-a-1] | at least 80% |
